PubChem BioAssay AID1259424, University of Nebraska Medical Center, 2018
The deposit covers about 14,000 reagents; below is a random part of them. 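Higher correlation or smaller distance means closer resemblance to KSR1 loss; control wells, including KSR1 knockdowns, recur on many plates.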 Not all columns of the deposit are shown. Not stated in the record: the time to read-out.

Assay: 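Rank knockdowns across the genome by resemblance to the KSR1 depletion profile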 (primary screen)
System: human HCT116 colon cancer cells
Reagents: siRNA pool against human genes, 50 nM
Measurement: 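Log2 levels of six mRNAs (branched-DNA multiplex), adjusted by two reference genes and the non-targeting median, then scored against the average KSR1 knockdown pattern as Pearson r and euclidean distance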
Reading the numbers: mean correlation with KSR1 profile: higher = expression change more like KSR1 knockdown

PRKACA | mean correlation with KSR1 profile: 0.153
PSMD8 | mean correlation with KSR1 profile: -0.288
LIF | mean correlation with KSR1 profile: -0.697
NEUROG1 | mean correlation with KSR1 profile: 0.236
CELF1 | mean correlation with KSR1 profile: 0.864
RPH3A | mean correlation with KSR1 profile: -0.333
REXO4 | mean correlation with KSR1 profile: -0.376
ZNF471 | mean correlation with KSR1 profile: -0.36
AFF3 | mean correlation with KSR1 profile: 0.272
MUC13 | mean correlation with KSR1 profile: -0.517
DNM3 | mean correlation with KSR1 profile: -0.244
PDSS2 | mean correlation with KSR1 profile: -0.241
SPIRE1 | mean correlation with KSR1 profile: 0.783
IL36R | mean correlation with KSR1 profile: -0.0366
DLG3 | mean correlation with KSR1 profile: -0.349
HIRIP3 | mean correlation with KSR1 profile: -0.0852
MACROD1 | mean correlation with KSR1 profile: 0.129
KATNB1 | mean correlation with KSR1 profile: -0.238
IREB2 | mean correlation with KSR1 profile: -0.166
KRT12 | mean correlation with KSR1 profile: 0.297
FNDC3A | mean correlation with KSR1 profile: -0.69
PC | mean correlation with KSR1 profile: 0.48
CX3CL1 | mean correlation with KSR1 profile: 0.557
EPHA8 | mean correlation with KSR1 profile: 0.208
PRCC | mean correlation with KSR1 profile: -0.153
ZFR2 | mean correlation with KSR1 profile: 0.12
UGT1A7 | mean correlation with KSR1 profile: -0.077
APC | mean correlation with KSR1 profile: 0.518
ZNF443 | mean correlation with KSR1 profile: 0.64
CELF6 | mean correlation with KSR1 profile: -0.226
HAO1 | mean correlation with KSR1 profile: -0.668
BOK | mean correlation with KSR1 profile: 0.098
UBE2H | mean correlation with KSR1 profile: 0.0684
KCNJ13 | mean correlation with KSR1 profile: -0.132
FLRT1 | mean correlation with KSR1 profile: -0.564
RAB21 | mean correlation with KSR1 profile: 0.855
